# For at least one compound, name, drawing or mass did not settle the structure.
# Experiment: Copper content of colored hair switches after repeated shampoo wash cycles (ICP-OES)
# Conditions: clarifying shampoo containing the chelant, 20 cycles, copper content of hair compared to same treatment with shampoo without chelant
# Experimental: The copper removing performance of the shampoo composition is determined by treating hair with clarifying shampoo containing the corresponding chelant for 20 cycles and comparing the copper content of the hair compared to the same treatment using shampoo without the chelant.
# All testing are performed on colored hair switches (see Method of Measurement of Copper on Hair below) weighing approximately 4.0 grams and having a length of approximately 6 inches. The hair switches are commercially available from IHIP (International Hair Importers). Three hair switches per shampoo composition are used. An amount of […] of shampoo is spread via a syringe onto separate hair switch. That is, the dosage is 0.10 g of shampoo per g of hair. Each application consists of adding shampoo to the hair, milking for 30 seconds followed by rinsing for 30 seconds. Shampoo is then reapplied (0.1 g/g), milked for 30 seconds and rinsed for 30 seconds. Excess water is squeezed from the hair switches and left to air dry or treated with a rinse-off conditioner and/or a leave-on treatment composition. […]
# Samples of 100 mg of hair are digested overnight with 2 ml of high purity concentrated nitric acid. […] Copper content of the hair switches is determined by inductively coupled plasma atomic spectroscopy (ICP-OES)). For each leg, 3 different samples are analyzed. […]
compound,measurement,value
"CCCCc1ccc(C(=O)O)nc1 [Fusaric Acid, fusaric acid]",Copper Removing Performance from Shampoo,50%
